Molecules are shown by their SMILES. The list shows only some results of the screen, not a fair sample: it gathers tests that were run many times, whatever their T/C, doses with no T/C, and many T/C values between a quarter and a half above the control. Other doses and runs of a compound stand elsewhere. T/C gives the treated animals as a percentage of the vehicle group. Some doses have a count of surviving animals in place of a T/C: the source files T/C as zero there, which appears to mark a toxic dose or a test without result, not a measured value. Some survivor counts are full or nearly so, which does not show that the dose was tolerated: the source hardly ever lists a survival T/C far under the control, and the zero likely stands for such cases as well. Survivors were counted at the toxicity check, usually on the fifth day, unless a day is given; later deaths do not show. Schedule codes are those of the source, taken here to give the interval after Q, in days (D) or hours (H), and the number of doses after X. Where survival is the endpoint, this PubChem deposit counts one and a half times the control or more as active, and values a quarter to a half above the control carry no call in these data; other NCI protocols may use other cut-offs. Some entries hold several experiments; the results are listed from low to high.

This assay relates to BDF1 mice, B16 melanoma ip, median survival T/C. In words: NCI In Vivo Anticancer Drug Screen. Data for tumor model B16 Melanoma (intraperitoneal) in B6D2F1 (BDF1) mice. The following applies: T/C endpoint: median survival time, higher T/C = longer survival. The method, boiled down: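 Survival or tumor size is measured after treatment of tumor-bearing mice and normalised to the vehicle-treated control group.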

Where [1] appears, read: dose: 100.0 mg/kg/injection, schedule: Q01DX009 (ip), vehicle: saline with Tween-80.
Setting [2] is: dose: 200.0 mg/kg/injection, schedule: Q01DX009 (ip), vehicle: saline.
The mark [3] stands for this setting: dose: 400.0 mg/kg/injection, schedule: Q01DX009 (ip), vehicle: saline.
The mark [4] stands for this setting: dose: 200.0 mg/kg/injection, schedule: Q01DX009 (ip), vehicle: Klucel (hydroxypropylcellulose) (HPC).
Where [5] appears, read: dose: 100.0 mg/kg/injection, schedule: Q01DX009 (ip), vehicle: Klucel (hydroxypropylcellulose) (HPC).
Where [6] appears, read: dose: 50.0 mg/kg/injection, schedule: Q01DX009 (ip), vehicle: saline.
Where [7] appears, read: dose: 400.0 mg/kg/injection, schedule: Q01DX009 (ip), vehicle: Klucel (hydroxypropylcellulose) (HPC).
[8] abbreviates: dose: 200.0 mg/kg/injection, schedule: Q01DX009 (ip), vehicle: saline with Tween-80.
Where [9] appears, read: dose: 400.0 mg/kg/injection, schedule: Q01DX009 (ip), vehicle: saline with Tween-80.

Take `CCCN(CCC)c1ccc(/C=C/c2ccnc3ccccc23)cc1`: the survivor count is 10 of 10 (dose: 43.0 mg/kg/injection, schedule: Q04DX003 (ip), vehicle: DMSO); 10 of 10 (dose: 87.0 mg/kg/injection, schedule: Q04DX003 (ip), vehicle: DMSO); 10 of 10 (dose: 175.0 mg/kg/injection, schedule: Q04DX003 (ip), vehicle: DMSO).

`COc1cc(-c2ccc(Nc3ccccc3C(=O)O)c(OC)c2)ccc1N`: the survivor count under setting [1] is listed as 9 of 10.

For `COC(=O)NC1C(C)OC(OC2C/C=C(/C)C3C=CC4C(OC5CC(OC6CCC(OC7CC(O)C(OC8CCC(O)C(C)O8)C(C)O7)C(C)O6)C(OC(C)=O)C(C)O5)C(C)CC(C)C4C3(C)/C(O)=C3/C(=O)OC4(CC(C=O)=CC(O)C4/C=C\2C)C3=O)CC1(C)[N+](=O)[O-]` (stereo unspecified), the T/C (dose: 1.25 mg/kg/injection, schedule: Q01DX009 (ip), vehicle: water) is 129 % of control. Moreover, the survivor count (dose: 20.0 mg/kg/injection, schedule: Q01DX009 (ip), vehicle: water) was 5 of 10.

Turning to `CC(C)Nc1ncnc2[nH]ncc12`, the survivor count reads like this: (dose: 16.0 mg/kg/injection, schedule: Q01DX009 (ip), vehicle: Klucel (hydroxypropylcellulose) (HPC)) 10 of 10; (dose: 32.0 mg/kg/injection, schedule: Q01DX009 (ip), vehicle: Klucel (hydroxypropylcellulose) (HPC)) 9 of 10; (dose: 64.0 mg/kg/injection, schedule: Q01DX009 (ip), vehicle: Klucel (hydroxypropylcellulose) (HPC)) 7 of 10.

Turning to `CC(=O)c1c(O)c(C)c(O)c2c1OC1=CC(=O)C(C(C)=O)C(=O)C12C` (stereo unspecified), the survivor count (dose: 10.0 mg/kg/injection, schedule: Q01DX009 (ip), vehicle: gum acacia) was 10 of 10.

In the case of `NCCNc1ccc(NCCN)c2c1C(=O)c1ccccc1C2=O`, the survivor count (dose: 16.0 mg/kg/injection, schedule: Q01DX009 (ip), vehicle: acid diluted with saline) is reported as 10 of 10; the survivor count (dose: 32.0 mg/kg/injection, schedule: Q01DX009 (ip), vehicle: acid diluted with saline) is on record as 6 of 10; the survivor count (dose: 64.0 mg/kg/injection, schedule: Q01DX009 (ip), vehicle: acid diluted with saline) is 0 of 10.

With `CC(C)(N)Cc1ccc(Cl)cc1`, the survivor count under setting [2] was 0 of 10 and the survivor count under setting [3] is reported as 0 of 10.

For the molecule `CC(C)(C[NH-])C[NH-].[Cl][Pt+2][Cl]`, the T/C is, setting by setting: (dose: 0.25 mg/kg/injection, schedule: Q04DX003 (ip), vehicle: water) 133 and 139 % of control; (dose: 0.5 mg/kg/injection, schedule: Q04DX003 (ip), vehicle: water) 133 % of control. Further, where the note is “dose: 4.0 mg/kg/injection, schedule: Q04DX003 (ip), vehicle: water”, the survivor count is 10 of 10.

As to `CN(C)N=Nc1ccc(S(N)(=O)=O)cc1`, the survivor count under setting [4] is 10 of 10.

In the case of `COc1cc2c(cc1OC)/C(=N/N)CCC2`, the survivor count (dose: 100.0 mg/kg/injection, schedule: Q01DX009 (ip), vehicle: water) is 7 of 10.

Turning to `CC1CC(C)(C)N=C(CCC2CCCC23OCCO3)O1` (stereo unspecified), under setting [2], the T/C is 126 % of control.

For the molecule `C=C(OC)C(Nc1cc(OC)c(OC)cc1C(=O)OC1CC(O[C@@H]2C(=O)C(NC(=O)OC)=C3/C(=C\CSSSC)[C@]2(O)C#C/C=C\C#C[C@@H]3OC2OC(C)C(NOC3CC(O)C(SC)C(C)O3)C(O)C2OC2CC(OC)C(NCCC)CO2)OC(C)C1O)OC` (stereo partly specified), the T/C (dose: 0.8 micrograms/kg/injection, schedule: Q04DX003 (ip), vehicle: methylcellulose (MC)) was 148 % of control.

`CC(C(=O)O)C(=O)O.[NH-]CC[NH-].[Pt+2]`: where the note is “dose: 50.0 mg/kg/injection, schedule: Q01DX009 (ip), vehicle: water”, the survivor count is given as 10 of 10.

As to `CCOC(=O)NC1CCC1NC(=O)OCC` (stereo unspecified), the survivor count (dose: 400.0 mg/kg/injection, schedule: Q04DX003 (ip), vehicle: saline with Tween-80) is reported as 5 of 10.

As for `COc1ccc(C2c3cc4c(c(OC)c3CC3OCC(=O)C32)OCO4)cc1OC` (stereo unspecified), the survivor count is given as 7 of 9 under setting [5] and 9 of 10 under setting [4].

Take `OCCN1CCC2(CC1)SSC1(CCN(CCO)CC1)S2`: the T/C under setting [6] was 129 % of control.

Take `CC(O)C1(O)C(O)CC(OC2c3cc4c(c(O)c3[C@@H]3C[C@@]2(C)OC32C=c3cc[nH]c3=N2)C(=O)c2cccc(O)c2C4=O)OC1C` (stereo partly specified): the T/C (dose: 8.0 mg/kg/injection, schedule: Q01DX009 (ip), vehicle: saline with Tween-80) is 131 % of control and the T/C (dose: 32.0 mg/kg/injection, schedule: Q01DX009 (ip), vehicle: saline with Tween-80) is 134 % of control.

For `CCCCCCCCOc1ccc(C(=O)c2ccccc2)c(O)c1`, the survivor count is given as 10 of 10 (dose: 1.5 mg/kg/injection, schedule: Q01DX009 (ip), vehicle: Klucel (hydroxypropylcellulose) (HPC)); 10 of 10 (dose: 3.0 mg/kg/injection, schedule: Q01DX009 (ip), vehicle: Klucel (hydroxypropylcellulose) (HPC)); 10 of 10 (dose: 12.5 mg/kg/injection, schedule: Q01DX009 (ip), vehicle: Klucel (hydroxypropylcellulose) (HPC)); 10 of 10 (dose: 25.0 mg/kg/injection, schedule: Q01DX009 (ip), vehicle: Klucel (hydroxypropylcellulose) (HPC)); 10 of 10 (dose: 50.0 mg/kg/injection, schedule: Q01DX009 (ip), vehicle: Klucel (hydroxypropylcellulose) (HPC)); 10 of 10 under setting [5]. Moreover, the survivor count was 10 of 10 under setting [4]; 10 of 10 under setting [7]; 9 of 9 (dose: 400.0 mg/kg/injection, schedule: Q04DX003 (ip), vehicle: Klucel (hydroxypropylcellulose) (HPC)).

Consider `CC1(C)N=C(N)N=C(N)N1c1ccc(CCCCc2ccc(Cl)c(S(=O)(=O)F)c2)c(Cl)c1`, for which the survivor count is recorded as 5 of 6 (dose: 27.0 mg/kg/injection, schedule: Q01DX009 (ip), vehicle: saline) and 0 of 6 (dose: 40.0 mg/kg/injection, schedule: Q01DX009 (ip), vehicle: saline).

For the molecule `O=C(Nc1cccc(C(F)(F)F)c1)C(c1ccccc1)c1ccccc1`, the survivor count is on record as 10 of 10 under setting [5], 10 of 10 under setting [4] and 10 of 10 under setting [7].

Consider `CC1C=CC(C(N)C(=O)O)O1` (stereo unspecified), for which the survivor count under setting [6] is reported as 6 of 6.

`CC(N)Cc1cn(C)c2ccccc12` (stereo unspecified): the survivor count was 0 of 10 under setting [2] and 0 of 10 under setting [3].

Turning to `Clc1ncnc2nc[nH]c12`, the survivor count under setting [8] is recorded as 6 of 6; the survivor count (dose: 400.0 mg/kg/injection, schedule: Q01DX009 (ip), vehicle: saline sonified) was 5 of 6; the survivor count under setting [9] was 3 of 6.

As to `FC(F)(F)c1cc(CN(CCCl)CCCl)cc(C(F)(F)F)c1`, the survivor count by setting is: under setting [6], 10 of 10; (dose: 100.0 mg/kg/injection, schedule: Q01DX009 (ip), vehicle: saline) 10 of 10.

Take `CC(C)C(Br)C(=O)NCC(=O)O` (stereo unspecified): the survivor count is 10 of 10 under setting [1], 10 of 10 under setting [8] and 10 of 10 under setting [9].

`CC(C)C1(C(=O)NNC(=O)CCCc2ccc(N(CCCl)CCCl)cc2)OC2(O)CCCCCN2C1=O` (stereo unspecified): the survivor count (dose: 6.25 mg/kg/injection, schedule: Q01DX009 (ip), vehicle: DMSO) was 8 of 8; the survivor count (dose: 25.0 mg/kg/injection, schedule: Q01DX009 (ip), vehicle: DMSO) is 10 of 10; the survivor count (dose: 50.0 mg/kg/injection, schedule: Q01DX009 (ip), vehicle: DMSO) is 0 of 10; the survivor count (dose: 100.0 mg/kg/injection, schedule: Q01DX009 (ip), vehicle: DMSO) was 0 of 10. Besides, the T/C by setting is: (dose: 25.0 mg/kg/injection, schedule: Q04DX003 (ip), vehicle: Klucel (hydroxypropylcellulose) (HPC)) 133 % of control; (dose: 50.0 mg/kg/injection, schedule: Q04DX003 (ip), vehicle: Klucel (hydroxypropylcellulose) (HPC)) 133 % of control.

`C[C@]12CC[C@@H]3c4ccc(Oc5nc(N6CC6)nc(N6CC6)n5)cc4CC[C@H]3[C@@H]1CCC2=O`: the survivor count (dose: 25.0 mg/kg/injection, schedule: Q01DX009 (ip), vehicle: saline) is 10 of 10.
